In PubChem BioAssay AID2685 (National Center for Advancing Translational Sciences (NCATS), 2010):
The list shows a part of the results. The main result of the screen is listed elsewhere. These columns were measured beside it and carry no call. Compounds called inactive in the main read-out are mostly missing here. The note in brackets gives the kind of curve behind each potency; many fits are weak.

Assay: qHTS Assay for Lipid Storage Modulators in Drosophila S3 Cells;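 for cell number change: cells counted by Cell Tracker Red CMTPX staining in the red channel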
Settings: BODIPY lipid droplet fluorescence, 18-24 h; for cell number change: measured here: cell count max response, cells fed with added oleic acid
Method in brief: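 Laser-scanning cytometry quantifies lipid droplet accumulation (500–530 nm total intensity; droplet/cell object ratio) in oleic acid-fed (400 uM added) Drosophila S3 cells treated with a concentration series. 20 uM Triacsin C defined 100% inhibition.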

[1] = measured here: lipid fluorescence (Fed channel) AC50, cells fed with added oleic acid
[2] = measured here: cell number channel AC50, cells fed with added oleic acid

Structure (SMILES)	cell number change [%]	AC50 [1]	AC50 [2]
Cc1c(NC(=O)c2cc(-c3ccc(Cl)cc3)on2)c(=O)n(-c2ccccc2)n1C	7.66	7310 nM [rising, partial curve]	
CCOC(=O)C1=C(O)C(=O)N(Cc2ccccc2)CC1	-12.7	206 nM [falling, full curve]	
Cc1nn(-c2ccccn2)c2c1C(c1ccccc1Cl)C1=C(N2)c2ccccc2C1=O (configuration not stated)		1300 nM [rising, partial curve]	731 nM [rising, full curve]
COc1ccc(-c2c3c(=O)n(C)c(=O)n(C)c3cn2Cc2cccnc2)cc1	6.32		
CC(Sc1nc(NCc2ccccc2)nc(N2CCOCC2)n1)C(=O)Nc1ccccc1 (configuration not stated)	-46.6	29100 nM [falling, single point]	11600 nM [falling, partial curve]
O=C1c2cccnc2C(Nc2cccc(F)c2)N1Cc1ccco1 (configuration not stated)	-24.1	206 nM [falling, full curve]	
O=c1c2c(ncn2C2CCCC2)n(Cc2ccccc2)c(=O)n1CCOc1ccc(Br)cc1	-9.23	2910 nM [rising, partial curve, poor fit]	
CS(=O)(=O)c1ccc2nc(NC(=O)Cc3ccccc3)sc2c1	-16.9	23100 nM [falling, single point]	
NS(=O)(=O)c1ccc(CCNC(=O)c2ccccc2F)cc1	1.75		
CC(=O)N(Cc1cc2c(C)cc(C)cc2[nH]c1=O)C1CCCCC1	-17.8	116 nM [falling, single point]	
CCC(C)N(C(=O)COC(=O)c1[nH]c(C)c(C(C)=O)c1C)C1CCS(=O)(=O)C1 (configuration not stated)	0.532	6510 nM [rising, single point]	
COc1ccc(-c2cc(C)no2)cc1S(=O)(=O)N1CCN(c2ccccc2F)CC1		580 nM [rising, single point]	291 nM [rising, partial curve, poor fit]
CCOC(=O)N1CCN(c2ccc(C(C)=O)cc2F)CC1C (configuration not stated)	-3.05	6510 nM [rising, single point]	1840 nM [rising, partial curve, poor fit]
Cc1c(C(=O)Nc2ccc3c4c(cccc24)CC3)cccc1[N+](=O)[O-]	20.4		
Cc1cccc(-n2ncc3c(NCCCO)ncnc32)c1	0.132	411 nM [rising, full curve, poor fit]	
CCCCOc1ccc(C(=O)NCC(=O)NCCCn2nc(C)cc2C)cc1	0.389	20.6 nM [falling, full curve, poor fit]	

Structure (SMILES)	cell number change [%]	AC50 [1]	AC50 [2]
N#Cc1ccsc1NC(=O)C1CCN(C(=O)c2ccc(F)cc2)CC1	-4.42	2910 nM [rising, single point]	
Cc1nc2c(-c3ccc(F)cc3)c(C)nn2c(C)c1CCC(=O)NCc1ccco1	-22.8	461 nM [rising, full curve, poor fit]	
Cc1ccc(C(=O)Nc2ccc(C(=O)N/N=C/c3c[nH]c4ccccc34)cc2)cc1	-22.5	18400 nM [falling, single point]	
CCOc1cc(CNc2ccc(N3CCN(C(C)=O)CC3)cc2)cc(Br)c1OC	14.5	14600 nM [rising, partial curve]	
CC(C)c1ccc(N(C(=O)c2snc(C(N)=O)c2N)C(C(=O)NC2CCCC2)c2ccncc2)cc1 (configuration not stated)	-1.28		
Cc1ccccc1Cn1nc(C)c(NC(=O)c2nc3n(n2)C(C(F)F)CC(C)N3)c1C (configuration not stated)	0.291	1460 nM [rising, partial curve]	
CCC(C)[C@H](NC(=O)c1cn(CC)c2cc3c(cc2c1=O)OCO3)C(=O)NCCCn1ccnc1 (some centres not stated)	15.3		
Cc1onc(-c2c(Cl)cccc2Cl)c1C(=O)NCc1ccco1	2.51	32600 nM [falling, single point]	
CC(O)CNCc1ccc(-c2ccccc2)cc1 (configuration not stated)	-5.79		
O=C1c2ccccc2C(=O)N1n1c(=O)[nH]c2ccccc2c1=O		1300 nM [falling, full curve]	6510 nM [rising, partial curve]
COc1cccc(CNC(=O)CCC2CCCN(C(=O)Cc3ccccc3F)C2)c1 (configuration not stated)	1.09	23100 nM [falling, single point]	
O=C(O)c1ccccc1-c1nc(-c2ccccc2)c(-c2ccccc2)[nH]1	8.82		
O=C(CN1C(=O)CSC1=O)Nc1ccc(N2CCOCC2)cc1		58 nM [falling, full curve, poor fit]	
Cc1ccc(N2CCN(S(=O)(=O)c3ccc(Cl)s3)CC2C)cc1 (configuration not stated)	50.8	146 nM [rising, full curve, poor fit]	29100 nM [rising, partial curve]
CC1CCN(CCCCOc2ccc(C(C)(C)C)cc2)CC1	-9.15	6510 nM [rising, single point]	

Two of these compounds in a different format:
Structure (SMILES),cell number change [%],AC50 [1],AC50 [2]
O=C(O)c1ccccc1-c1nc(-c2ccccc2)c(-c2ccccc2)[nH]1,8.82,,
O=C(CN1C(=O)CSC1=O)Nc1ccc(N2CCOCC2)cc1,,"58 nM [falling, full curve, poor fit]",
